Measured values taken from publication PMC5426791.
No constants are given. Whether binding was seen depends on the method and setting. For some of these results: A result given as binding can be weak or reduced; the word gives no strength. Where a sequence is shown, tags or fusion partners need not be part of it.

Columns and labels:
Assay in all cases: two-hybrid; Matchmaker GAL4 Two-Hybrid System 3; BD fusions (pGBKT7) in Y187 mated with AD fusions (pGADT7) in AH109; growth at 30°C on SD/-Leu/-Trp/-Ade/-His with X-α-gal; serial dilutions
[1] = molecular target: P7-2 residues 44-309 fused to the GAL4 DNA-binding domain (Rice black streaked dwarf virus)
[2] = molecular target: Rice black streaked dwarf virus P7-2 fused to the GAL4 DNA-binding domain (Rice black streaked dwarf virus)
[3] = molecular target: P7-2 residues 25-309 fused to the GAL4 DNA-binding domain (Rice black streaked dwarf virus)
[4] = molecular target: P7-2 residues 1-295 fused to the GAL4 DNA-binding domain (Rice black streaked dwarf virus)
[5] = molecular target: P7-2 residues 1-287 fused to the GAL4 DNA-binding domain (Rice black streaked dwarf virus)
[6] = molecular target: P7-2 residues 79-309 fused to the GAL4 DNA-binding domain (Rice black streaked dwarf virus)

Row | Binder | binding [2] | also measured
1 | O. sativa gibberellin insensitive dwarf2 (GID2) fused to the GAL4 activation domain (protein, UniProt Q7XAK4 1-212) MKFRSDSSGGDEPRAPAAGDGGGGGDEPAKRQRTDPSSSSSQGEASSSSQPPPQQQQEEQPPEDAGEGEQPRVPDLGEDLVFEVLRRAEARTLAAAACVSRGWRQLAEDERLWEAACVREWANLGFSERQLRAVVLSLGGFRRLHAVYIRPLQWRGAGVPRQQGRRQPPVRLGRDQVQLSLSLFSIGFFQNMPCPKKDKGNDSDKNGGGQCG | binds | binding [1]: binds; binding [3]: binds; binding [4]: binds; binding [5]: binds; binding [6]: no binding
2 | Oryza sativa SKP1-like protein OSK4 fused to the GAL4 activation domain (protein, UniProt B8BBT7 1-509) MEGNARGGGHSEALKNYNLGRTLGIGSFGKVKIAEHKLTGHRVAIKILNRRQMRNMEMEEKAKREIKILRLFIHPHIIRLYEVIYTPTDIYVVMEYCKFGELFDYIVEKGRLQEDEARRIFQQIISGVEYCHRNMVVHRDLKPENLLLDSKYNVKLADFGLSNVMHDGHFLKTSCGSPNYAAPEVISGKLYAGPEVDVWSCGVILYALLCGTLPFDDENIPNLFKKIKGGIYTLPSHLSALARDLIPRMLVVDPMKRITIREIREHQWFQIRLPRYLAVPPPDTAQQAKMIDEDTLQDVVNLGYEKDHVCESLRNRLQNEATVAYYLLLDNRFRATSGYLGADYQESLERNLNRFASSESASSNTRHYLPGSSDPHASGLRPHYPVERKWALGLQSRAQPREIMIEVLKALEDLNVCWKKNGQYNMKCRWSVGYPQATDMLDVNHSFVDDSIIMDNGDVNGRLPAVIKFEIQLYKSRDEKYLLDMQRVTGPQLLFLDFCAAFLTKLRVL | binds weakly | 
3 | O. sativa gibberellin insensitive dwarf1 (GID1) fused to the GAL4 activation domain (receptor, UniProt Q6L545 1-354) MAGSDEVNRNECKTVVPLHTWVLISNFKLSYNILRRADGTFERDLGEYLDRRVPANARPLEGVSSFDHIIDQSVGLEVRIYRAAAEGDAEEGAAAVTRPILEFLTDAPAAEPFPVIIFFHGGSFVHSSASSTIYDSLCRRFVKLSKGVVVSVNYRRAPEHRYPCAYDDGWTALKWVMSQPFMRSGGDAQARVFLSGDSSGGNIAHHVAVRAADEGVKVCGNILLNAMFGGTERTESERRLDGKYFVTLQDRDWYWKAYLPEDADRDHPACNPFGPNGRRLGGLPFAKSLIIVSGLDLTCDRQLAYADALREDGHHVKVVQCENATVGFYLLPNTVHYHEVMEEISDFLNANLYY | no binding | 
4 | O. sativa Slender Rice 1 (SLR1) fused to the GAL4 activation domain (protein, UniProt Q7G7J6 1-625) MKREYQEAGGSSGGGSSADMGSCKDKVMAGAAGEEEDVDELLAALGYKVRSSDMADVAQKLEQLEMAMGMGGVSAPGAADDGFVSHLATDTVHYNPSDLSSWVESMLSELNAPLPPIPPAPPAARHASTSSTVTGGGGSGFFELPAAADSSSSTYALRPISLPVVATADPSAADSARDTKRMRTGGGSTSSSSSSSSSLGGGASRGSVVEAAPPATQGAAAANAPAVPVVVVDTQEAGIRLVHALLACAEAVQQENFAAAEALVKQIPTLAASQGGAMRKVAAYFGEALARRVYRFRPADSTLLDAAFADLLHAHFYESCPYLKFAHFTANQAILEAFAGCHRVHVVDFGIKQGMQWPALLQALALRPGGPPSFRLTGVGPPQPDETDALQQVGWKLAQFAHTIRVDFQYRGLVAATLADLEPFMLQPEGEADANEEPEVIAVNSVFELHRLLAQPGALEKVLGTVHAVRPRIVTVVEQEANHNSGSFLDRFTESLHYYSTMFDSLEGGSSGQAELSPPAAGGGGGTDQVMSEVYLGRQICNVVACEGAERTERHETLGQWRNRLGRAGFEPVHLGSNAYKQASTLLALFAGGDGYRVEEKEGCLTLGWHTRPLIATSAWRVAAA | no binding | 
5 | Oryza sativa SKP1-like protein OSK3 fused to the GAL4 activation domain (protein, UniProt A2XFF4 1-508) MDGNAKGGGHSEALKNYNLGRTLGIGSFGKVKIAEHKLTGHRVAIKILNRRQMRNMEMEEKAKREIKILRLFIHPHIIRLYEVIYTPTDIYVVMEYCKFGELFDYIVEKGRLQEDEARRIFQQIISGVEYCHRNMVVHRDLKPENLLLDSKYNVKLADFGLSNVMHDGHFLKTSCGSPNYAAPEVISGKLYAGPEVDVWSCGVILYALLCGTLPFDDENIPNLFKKIKGGIYTLPSHLSALARDLIPRMLVVDPMKRITIREIREHQWFQIRLPRYLAVPPPDTAQQAKMIDEDTLQDVVNLGYGKDHVCESLRNRLQNEATVAYYLLLDNRFRATSGYLGADYQESLERNFNRFASSESASSNTRHYLPGSSDPHASGLRPHYPVERKWALGLQSRAQPREIMIEVLKALQDLNVSWKKNGQYNMKCRWSVGTQATDMLDVNNSFVDDSIIMDNGDVNGRLPAVIKFEIQLYKTRDEKYLLDMQRVTGPQLLFLDFCADFLTKLRVL | no binding | 
